Some of the results follow.
Tests used:
Test in all cases: log2 fold change, soluble protein after heating vs DMSO (PISA); higher = thermal stabilisation; K562 lysate, 10 uM; active = over 0.2 and 3.5 SD of the protein, either way, in both replicates (recomputed)
vemurafenib = compound: CCCS(=O)(=O)Nc1ccc(F)c(C(=O)c2c[nH]c3ncc(-c4ccc(Cl)cc4)cc23)c1F [vemurafenib]
In short: (§1)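 To prepare the extract, K562 pellets were dounce-homogenised in PBS pH 7.4 with 1 mM MgCl2, giving crude material at 1 mg/mL protein. This was treated with 10 μM compound for 30 min, then heated in aliquots for 3 min over 48°C-58°C before pooling and addition of NP-40 to 0.5% at 4°C. Centrifugation at 21,000xg for 90 min left soluble protein in the supernatant, which TMTpro 16plex LC-MS/MS quantified with equalised channel sums. Results are log-two fold changes in thermal stability compared with solvent controls, from duplicates.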

Protein sequences, listed by entry. Tags and fused reporters are not part of them. Lines headed by an entry give the natural chain unless they say otherwise; changes in a name come on top.
UniProt Q9P2E9: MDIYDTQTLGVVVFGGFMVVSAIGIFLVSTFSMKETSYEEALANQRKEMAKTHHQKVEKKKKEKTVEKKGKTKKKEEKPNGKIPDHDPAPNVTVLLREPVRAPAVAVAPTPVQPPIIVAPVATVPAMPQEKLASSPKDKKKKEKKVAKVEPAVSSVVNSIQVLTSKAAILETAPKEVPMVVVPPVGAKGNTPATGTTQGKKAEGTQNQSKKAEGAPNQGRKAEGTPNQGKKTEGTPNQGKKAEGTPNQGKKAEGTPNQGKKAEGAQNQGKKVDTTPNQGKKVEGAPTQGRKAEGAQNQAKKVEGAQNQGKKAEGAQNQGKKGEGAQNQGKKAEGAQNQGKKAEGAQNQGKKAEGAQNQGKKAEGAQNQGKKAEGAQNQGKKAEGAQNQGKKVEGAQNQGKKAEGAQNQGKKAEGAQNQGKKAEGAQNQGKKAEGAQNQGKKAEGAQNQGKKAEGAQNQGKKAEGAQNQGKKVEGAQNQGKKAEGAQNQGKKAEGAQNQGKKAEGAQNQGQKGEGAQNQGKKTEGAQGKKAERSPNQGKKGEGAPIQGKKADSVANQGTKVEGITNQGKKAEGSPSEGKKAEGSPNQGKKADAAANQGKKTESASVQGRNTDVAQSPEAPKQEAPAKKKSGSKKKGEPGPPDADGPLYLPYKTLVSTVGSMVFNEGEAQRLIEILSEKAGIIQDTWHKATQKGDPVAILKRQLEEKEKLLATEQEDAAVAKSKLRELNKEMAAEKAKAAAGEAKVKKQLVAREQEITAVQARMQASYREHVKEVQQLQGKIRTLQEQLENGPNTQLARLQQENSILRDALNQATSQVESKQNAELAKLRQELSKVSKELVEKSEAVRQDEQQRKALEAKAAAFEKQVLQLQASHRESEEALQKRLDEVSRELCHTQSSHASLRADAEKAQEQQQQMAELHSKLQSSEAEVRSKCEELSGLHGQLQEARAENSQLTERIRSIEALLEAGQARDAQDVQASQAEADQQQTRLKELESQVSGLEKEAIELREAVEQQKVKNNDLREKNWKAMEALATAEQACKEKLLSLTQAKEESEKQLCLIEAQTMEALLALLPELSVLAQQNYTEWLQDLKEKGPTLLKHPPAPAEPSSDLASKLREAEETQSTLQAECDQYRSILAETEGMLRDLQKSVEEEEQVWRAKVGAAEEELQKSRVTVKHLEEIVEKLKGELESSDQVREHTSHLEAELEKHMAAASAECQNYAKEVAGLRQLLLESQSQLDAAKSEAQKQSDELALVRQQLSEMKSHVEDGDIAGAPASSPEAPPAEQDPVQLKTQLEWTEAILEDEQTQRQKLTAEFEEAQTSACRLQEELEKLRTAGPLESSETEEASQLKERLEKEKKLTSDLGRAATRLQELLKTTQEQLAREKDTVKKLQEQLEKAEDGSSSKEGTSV
UniProt Q5VT52: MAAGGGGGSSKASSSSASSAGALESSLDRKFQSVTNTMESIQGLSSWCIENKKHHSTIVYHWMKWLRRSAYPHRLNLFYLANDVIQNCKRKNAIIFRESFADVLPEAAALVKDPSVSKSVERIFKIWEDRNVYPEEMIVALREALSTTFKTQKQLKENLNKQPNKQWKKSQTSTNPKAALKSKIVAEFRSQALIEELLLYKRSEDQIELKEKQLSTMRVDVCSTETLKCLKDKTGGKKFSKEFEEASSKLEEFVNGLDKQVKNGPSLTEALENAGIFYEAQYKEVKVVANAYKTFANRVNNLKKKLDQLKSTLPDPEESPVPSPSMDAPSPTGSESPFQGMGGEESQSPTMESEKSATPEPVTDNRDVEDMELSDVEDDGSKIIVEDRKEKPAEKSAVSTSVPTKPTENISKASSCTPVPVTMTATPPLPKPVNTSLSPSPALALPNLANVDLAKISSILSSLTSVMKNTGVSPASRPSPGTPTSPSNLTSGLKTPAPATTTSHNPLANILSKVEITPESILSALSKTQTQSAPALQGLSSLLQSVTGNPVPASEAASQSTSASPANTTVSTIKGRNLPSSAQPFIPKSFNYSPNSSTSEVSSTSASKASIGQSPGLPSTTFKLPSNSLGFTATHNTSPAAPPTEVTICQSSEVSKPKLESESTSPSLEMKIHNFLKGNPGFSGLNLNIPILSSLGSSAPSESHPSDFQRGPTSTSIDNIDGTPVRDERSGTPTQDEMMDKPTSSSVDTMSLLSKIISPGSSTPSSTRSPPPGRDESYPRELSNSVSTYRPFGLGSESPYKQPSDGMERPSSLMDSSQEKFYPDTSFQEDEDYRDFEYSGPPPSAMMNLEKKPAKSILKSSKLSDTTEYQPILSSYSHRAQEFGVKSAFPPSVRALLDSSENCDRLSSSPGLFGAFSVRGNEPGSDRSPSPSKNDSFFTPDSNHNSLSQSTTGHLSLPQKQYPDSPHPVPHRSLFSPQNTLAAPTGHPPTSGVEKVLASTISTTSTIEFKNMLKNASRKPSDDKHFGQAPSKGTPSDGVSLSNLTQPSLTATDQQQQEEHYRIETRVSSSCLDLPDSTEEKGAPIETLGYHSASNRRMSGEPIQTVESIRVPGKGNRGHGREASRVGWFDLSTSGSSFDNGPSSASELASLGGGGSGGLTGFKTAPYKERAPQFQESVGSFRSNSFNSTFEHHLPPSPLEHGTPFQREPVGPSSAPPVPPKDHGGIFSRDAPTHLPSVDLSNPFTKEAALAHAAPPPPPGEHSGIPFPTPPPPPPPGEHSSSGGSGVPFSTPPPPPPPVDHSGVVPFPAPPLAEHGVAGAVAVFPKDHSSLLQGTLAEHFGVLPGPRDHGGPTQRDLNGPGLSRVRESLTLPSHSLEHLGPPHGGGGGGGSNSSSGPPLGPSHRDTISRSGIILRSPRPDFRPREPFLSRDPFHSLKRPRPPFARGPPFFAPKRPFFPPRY
UniProt O00442: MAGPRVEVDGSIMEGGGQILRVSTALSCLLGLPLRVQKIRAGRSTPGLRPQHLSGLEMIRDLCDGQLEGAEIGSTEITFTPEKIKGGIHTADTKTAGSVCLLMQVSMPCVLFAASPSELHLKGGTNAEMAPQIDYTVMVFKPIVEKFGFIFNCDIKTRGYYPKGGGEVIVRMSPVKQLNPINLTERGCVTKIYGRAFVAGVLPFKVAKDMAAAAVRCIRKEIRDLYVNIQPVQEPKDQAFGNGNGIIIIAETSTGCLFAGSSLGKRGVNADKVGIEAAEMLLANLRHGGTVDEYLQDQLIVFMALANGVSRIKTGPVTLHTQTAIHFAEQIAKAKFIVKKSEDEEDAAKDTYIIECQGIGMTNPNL
UniProt Q9NQC3: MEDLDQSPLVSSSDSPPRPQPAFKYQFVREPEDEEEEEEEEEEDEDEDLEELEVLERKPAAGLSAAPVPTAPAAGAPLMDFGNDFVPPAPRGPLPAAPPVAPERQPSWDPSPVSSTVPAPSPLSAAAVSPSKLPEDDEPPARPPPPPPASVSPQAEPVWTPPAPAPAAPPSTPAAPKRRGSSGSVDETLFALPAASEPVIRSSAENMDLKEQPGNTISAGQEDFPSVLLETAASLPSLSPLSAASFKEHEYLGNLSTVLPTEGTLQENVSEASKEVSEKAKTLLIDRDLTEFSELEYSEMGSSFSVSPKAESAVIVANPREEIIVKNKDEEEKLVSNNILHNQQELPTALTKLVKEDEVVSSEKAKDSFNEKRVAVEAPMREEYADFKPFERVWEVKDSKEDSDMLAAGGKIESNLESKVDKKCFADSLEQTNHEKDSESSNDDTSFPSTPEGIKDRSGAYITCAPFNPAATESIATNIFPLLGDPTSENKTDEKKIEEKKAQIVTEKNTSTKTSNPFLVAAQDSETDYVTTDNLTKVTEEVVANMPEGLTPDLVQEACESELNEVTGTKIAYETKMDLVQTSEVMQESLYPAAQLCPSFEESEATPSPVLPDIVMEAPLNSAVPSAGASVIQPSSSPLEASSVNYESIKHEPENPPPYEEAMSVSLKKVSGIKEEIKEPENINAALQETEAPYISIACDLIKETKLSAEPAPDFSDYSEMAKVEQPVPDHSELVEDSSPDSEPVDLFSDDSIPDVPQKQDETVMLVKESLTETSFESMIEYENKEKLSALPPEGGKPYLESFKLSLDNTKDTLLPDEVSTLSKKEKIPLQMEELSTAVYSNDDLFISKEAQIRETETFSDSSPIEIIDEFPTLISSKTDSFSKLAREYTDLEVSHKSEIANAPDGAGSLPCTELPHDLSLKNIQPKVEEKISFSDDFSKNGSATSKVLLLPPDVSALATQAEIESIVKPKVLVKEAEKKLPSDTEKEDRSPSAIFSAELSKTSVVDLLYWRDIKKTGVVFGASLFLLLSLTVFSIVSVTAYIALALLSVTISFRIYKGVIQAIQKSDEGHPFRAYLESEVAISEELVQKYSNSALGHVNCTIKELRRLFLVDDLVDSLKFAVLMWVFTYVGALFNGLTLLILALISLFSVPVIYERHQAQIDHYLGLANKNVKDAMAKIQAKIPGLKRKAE
UniProt P05387, whole entry, looked up: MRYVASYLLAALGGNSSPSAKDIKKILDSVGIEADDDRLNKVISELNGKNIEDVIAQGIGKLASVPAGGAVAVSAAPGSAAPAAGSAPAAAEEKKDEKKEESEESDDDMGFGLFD
UniProt Q96DX4: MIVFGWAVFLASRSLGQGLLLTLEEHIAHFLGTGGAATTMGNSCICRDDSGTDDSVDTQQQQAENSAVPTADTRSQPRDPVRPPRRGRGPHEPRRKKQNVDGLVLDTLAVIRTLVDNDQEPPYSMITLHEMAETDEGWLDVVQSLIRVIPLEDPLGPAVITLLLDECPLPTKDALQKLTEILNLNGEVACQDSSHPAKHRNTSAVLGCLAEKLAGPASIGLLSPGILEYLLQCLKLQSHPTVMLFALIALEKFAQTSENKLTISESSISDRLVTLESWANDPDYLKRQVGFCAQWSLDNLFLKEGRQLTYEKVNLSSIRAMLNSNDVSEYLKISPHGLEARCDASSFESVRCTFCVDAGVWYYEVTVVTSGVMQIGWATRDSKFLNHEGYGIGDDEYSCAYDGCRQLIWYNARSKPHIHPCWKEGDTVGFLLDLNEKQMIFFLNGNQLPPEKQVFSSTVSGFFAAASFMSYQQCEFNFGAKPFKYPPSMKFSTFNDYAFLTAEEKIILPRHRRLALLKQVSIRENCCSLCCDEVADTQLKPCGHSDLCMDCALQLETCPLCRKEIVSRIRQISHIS

[1] = compound: CCCS(=O)(=O)Nc1ccc(F)c(C(=O)c2c[nH]c3ncc(Cl)cc23)c1F
In short: as §1

barasertib = compound: CCN(CCCOc1ccc2c(Nc3cc(CC(=O)Nc4cccc(F)c4)[nH]n3)ncnc2c1)CCOP(=O)(O)O [barasertib]
In short: as §1

[2] = compound: CC[C@@H]1C(=O)N(C)c2cnc(Nc3ccc(C(=O)NC4CCN(C)CC4)cc3OC)nc2N1C1CCCC1
In short: as §1

volasertib = compound: CC[C@@H]1C(=O)N(C)c2cnc(Nc3ccc(C(=O)N[C@H]4CC[C@H](N5CCN(CC6CC6)CC5)CC4)cc3OC)nc2N1C(C)C [volasertib]
In short: as §1

[3] = compound: CCn1c(C(=O)N(C2CC2)C2CC2)cc2c3c(ncn3C)c(Nc3cc(C)n(C)n3)nc21
In short: as §1

[4] = compound: CCn1cc(-c2ccnc3[nH]c(-c4cccc(CN(C)C)c4)cc23)c(-c2ccc(NC(=O)N(C)C)cc2)n1
In short: as §1

[5] = compound: CN1CCC(CNc2ccc3ncc(-c4cccc(OC(F)(F)F)c4)n3n2)CC1
In short: as §1

saracatinib = compound: CN1CCN(CCOc2cc(OC3CCOCC3)c3c(Nc4c(Cl)ccc5c4OCO5)ncnc3c2)CC1 [saracatinib]
In short: as §1

sotrastaurin = compound: CN1CCN(c2nc(C3=C(c4c[nH]c5ccccc45)C(=O)NC3=O)c3ccccc3n2)CC1 [sotrastaurin]
In short: as §1

alvocidib = compound: CN1CC[C@H](c2c(O)cc(O)c3c(=O)cc(-c4ccccc4Cl)oc23)[C@H](O)C1 [alvocidib]
In short: as §1

Tubastatin A = compound: CN1CCc2c(c3ccccc3n2Cc2ccc(C(=O)NO)cc2)C1 [Tubastatin A]
In short: as §1

[6] = compound: CNC(=O)C1=CC=CC=C1NC2=NC(=NC=C2Cl)NC3=C(C=C(C=C3)N4CCOCC4)OC
In short: as §1

defactinib = compound: CNC(=O)c1ccc(Nc2ncc(C(F)(F)F)c(NCc3nccnc3N(C)S(C)(=O)=O)n2)cc1 [defactinib]
In short: as §1

[7] = compound: CNc1nc(-c2ccc3c(N)n[nH]c3c2)cc(N2C[C@@H](C(=O)NC3CCCCC3)CC[C@H]2C)n1
In short: as §1

encorafenib = compound: COC(=O)N[C@@H](C)CNc1nccc(-c2cn(C(C)C)nc2-c2cc(Cl)cc(NS(C)(=O)=O)c2F)n1 [encorafenib]
In short: as §1

[8] = compound: COC(=O)[C@H](CCSC)NC(=O)C1=C(C=C(C=C1)NC[C@H](CS)N)C2=CC=CC=C2
In short: as §1

alisertib = compound: COc1cc(Nc2ncc3c(n2)-c2ccc(Cl)cc2C(c2c(F)cccc2OC)=NC3)ccc1C(=O)O [alisertib]
In short: as §1

[9] = compound: COc1cc2nc(-c3cc(F)ccc3O)nc(N[C@@H]3CNC[C@H]3C(C)(C)O)c2cc1OC
In short: as §1

gefitinib = compound: COc1cc2ncnc(Nc3ccc(F)c(Cl)c3)c2cc1OCCCN1CCOCC1 [gefitinib]
In short: as §1

Measured: log2 fold change

RSL1D1 (UniProt O76021)
inactive: vemurafenib -0.007 | [1] -0.001 | barasertib -0.037 | [2] -0.007 | volasertib 0.006 | [3] -0.004 | [4] -0.002 | [5] -0.049 | saracatinib -0.008 | sotrastaurin -0.008 | alvocidib 0.007 | Tubastatin A -0.008 | [6] 0.007 | defactinib 0.024 | [7] -0.016 | encorafenib 0.022 | [8] -0.047 | alisertib -0.011 | [9] -0.014 | gefitinib -0.01

RPS27A (UniProt P62979)
inactive: vemurafenib -0.071 | [1] -0.021 | barasertib -0.056 | [2] 0.076 | volasertib 0.016 | [3] -0.031 | [4] 0.067 | [5] 0.008 | saracatinib 0.044 | sotrastaurin -0.034 | alvocidib -0.018 | Tubastatin A -0.019 | [6] -0.031 | defactinib -0.026 | [7] -0.09 | encorafenib -0.046 | [8] 0.052 | alisertib 0.031 | [9] -0.021 | gefitinib -0.048

RPSA (UniProt P08865)
inactive: vemurafenib 0.008 | [1] -0.012 | barasertib -0.006 | [2] -0.013 | volasertib -0.035 | [3] -0.01 | [4] -0.088 | [5] 0.02 | saracatinib 0 | sotrastaurin 0 | alvocidib 0.005 | Tubastatin A 0.038 | [6] -0.025 | defactinib -0.037 | [7] -0.018 | encorafenib -0.026 | [8] 0.058 | alisertib 0.019 | [9] -0.003 | gefitinib -0.001

RPS8 (UniProt P62241)
inactive: vemurafenib -0.052 | [1] -0.005 | barasertib -0.06 | [2] -0.028 | volasertib -0.009 | [3] -0.005 | [4] 0.038 | [5] -0.014 | saracatinib 0.006 | sotrastaurin -0.004 | alvocidib 0.004 | Tubastatin A 0.035 | [6] -0.038 | defactinib 0.024 | [7] 0.006 | encorafenib -0.018 | [8] 0.061 | alisertib 0.019 | [9] 0.001 | gefitinib -0.07

RRBP1 (UniProt Q9P2E9)
inactive: vemurafenib -0.004 | [1] 0.021 | barasertib -0.002 | [2] 0.054 | volasertib -0.007 | [3] 0.01 | [4] 0.093 | [5] -0.078 | saracatinib 0.05 | sotrastaurin -0.018 | alvocidib 0.021 | Tubastatin A 0.007 | [6] -0.009 | defactinib 0.002 | [7] -0.001 | encorafenib 0.018 | [8] -0.038 | alisertib 0.003 | [9] 0.01 | gefitinib -0.002

RPRD2 (UniProt Q5VT52)
inactive: vemurafenib 0.021 | [1] -0.037 | barasertib 0.087 | [2] 0.018 | volasertib -0.012 | [3] -0.024 | [4] -0.003 | [5] 0.022 | saracatinib -0.015 | sotrastaurin -0.025 | alvocidib 0.015 | Tubastatin A -0.059 | [6] 0.048 | defactinib -0.032 | [7] 0.004 | encorafenib 0.125 | [8] -0.023 | alisertib -0.081 | [9] 0.052 | gefitinib -0.042

RTCA (UniProt O00442)
inactive: vemurafenib 0.013 | [1] 0.057 | barasertib -0.038 | [2] 0.039 | volasertib -0.06 | [3] -0.024 | [4] -0.061 | [5] 0.043 | saracatinib 0.007 | sotrastaurin -0.009 | alvocidib 0.033 | Tubastatin A 0.022 | [6] 0.01 | defactinib -0.007 | [7] 0.049 | encorafenib 0.017 | [8] 0.005 | alisertib -0.022 | [9] 0.016 | gefitinib -0.045

Two successive entries out of the list so far, quoted:
RPRD2 (UniProt Q5VT52)
inactive: vemurafenib 0.021 | [1] -0.037 | barasertib 0.087 | [2] 0.018 | volasertib -0.012 | [3] -0.024 | [4] -0.003 | [5] 0.022 | saracatinib -0.015 | sotrastaurin -0.025 | alvocidib 0.015 | Tubastatin A -0.059 | [6] 0.048 | defactinib -0.032 | [7] 0.004 | encorafenib 0.125 | [8] -0.023 | alisertib -0.081 | [9] 0.052 | gefitinib -0.042

RTCA (UniProt O00442)
inactive: vemurafenib 0.013 | [1] 0.057 | barasertib -0.038 | [2] 0.039 | volasertib -0.06 | [3] -0.024 | [4] -0.061 | [5] 0.043 | saracatinib 0.007 | sotrastaurin -0.009 | alvocidib 0.033 | Tubastatin A 0.022 | [6] 0.01 | defactinib -0.007 | [7] 0.049 | encorafenib 0.017 | [8] 0.005 | alisertib -0.022 | [9] 0.016 | gefitinib -0.045

(next part)

RPS27 (UniProt P42677)
inactive: vemurafenib -0.005 | [1] 0.005 | barasertib -0.016 | [2] -0.001 | volasertib -0.016 | [3] -0.1 | [4] -0.019 | [5] 0.045 | saracatinib 0.011 | sotrastaurin -0.073 | alvocidib 0.119 | Tubastatin A 0.063 | [6] 0.045 | defactinib 0.027 | [7] 0.042 | encorafenib -0.037 | [8] 0.058 | alisertib 0.087 | [9] 0.007 | gefitinib -0.097

RPS12 (UniProt P25398)
inactive: vemurafenib -0.009 | [1] 0.006 | barasertib 0.043 | [2] 0.015 | volasertib 0.022 | [3] 0.009 | [4] 0.037 | [5] -0.023 | saracatinib -0.023 | sotrastaurin -0.056 | alvocidib 0.008 | Tubastatin A -0.009 | [6] 0.009 | defactinib -0.007 | [7] 0.044 | encorafenib -0.007 | [8] -0.041 | alisertib -0.005 | [9] 0 | gefitinib -0.009

RTN4 isoform 5 (UniProt Q9NQC3)
inactive: vemurafenib -0.01 | [1] -0.038 | barasertib 0.023 | [2] -0.085 | volasertib -0.019 | [3] 0.02 | [4] -0.103 | [5] 0.113 | saracatinib 0.057 | sotrastaurin 0.033 | alvocidib 0.005 | Tubastatin A 0.046 | [6] -0.068 | defactinib 0.031 | [7] -0.046 | encorafenib 0.134 | [8] -0.04 | alisertib 0.021 | [9] -0.005 | gefitinib 0.014

RPL7 (UniProt P18124)
inactive: vemurafenib -0.002 | [1] -0.02 | barasertib -0.017 | [2] 0.024 | volasertib 0.002 | [3] -0.008 | [4] -0.029 | [5] 0.021 | saracatinib 0.003 | sotrastaurin -0.014 | alvocidib 0.006 | Tubastatin A 0.012 | [6] 0.012 | defactinib -0.002 | [7] 0.038 | encorafenib -0.021 | [8] -0.006 | alisertib 0.012 | [9] -0.001 | gefitinib -0.057

RPLP2 (UniProt P05387)
inactive: vemurafenib 0.046 | [1] -0.004 | barasertib 0.079 | [2] -0.008 | volasertib 0.04 | [3] -0.023 | [4] 0.018 | [5] -0.058 | saracatinib 0.021 | sotrastaurin -0.003 | alvocidib 0.011 | Tubastatin A 0.041 | [6] 0.024 | defactinib 0.002 | [7] -0.03 | encorafenib -0.003 | [8] -0.016 | alisertib 0.049 | [9] 0.005 | gefitinib -0.033

RSPRY1 (UniProt Q96DX4)
inactive: vemurafenib 0.007 | [1] 0.03 | barasertib -0.022 | [2] -0.031 | volasertib -0.001 | [3] -0.002 | [4] -0.077 | [5] 0.079 | saracatinib 0 | sotrastaurin 0.016 | alvocidib -0.052 | Tubastatin A 0.031 | [6] -0.044 | defactinib -0.012 | [7] 0.02 | encorafenib -0.013 | [8] -0.06 | alisertib -0.073 | [9] 0.002 | gefitinib 0.011

RPS13 (UniProt P62277)
inactive: vemurafenib -0.037 | [1] -0.001 | barasertib 0.009 | [2] -0.066 | volasertib 0.007 | [3] 0.036 | [4] 0.196 | [5] -0.131 | saracatinib 0.011 | sotrastaurin -0.015 | alvocidib 0.041 | Tubastatin A 0.018 | [6] -0.031 | defactinib 0.018 | [7] -0.024 | encorafenib -0.04 | [8] 0.058 | alisertib 0.01 | [9] -0.014 | gefitinib -0.029

RPS15A (UniProt P62244)
inactive: vemurafenib -0.024 | [1] -0.018 | barasertib 0.003 | [2] -0.062 | volasertib -0.03 | [3] 0.026 | [4] 0.123 | [5] -0.025 | saracatinib -0.009 | sotrastaurin 0.023 | alvocidib -0.01 | Tubastatin A -0.031 | [6] -0.001 | defactinib 0.005 | [7] 0.04 | encorafenib -0.009 | [8] 0.039 | alisertib 0.008 | [9] 0.001 | gefitinib -0.002
